Reference: PubChem BioAssay (EPA / NIEHS)
Shown are results outside the selection of hits, which stands elsewhere. Results filed as inconclusive are left out. Calls of active or inactive are those of the source. The calls were made as follows: active = hit-call score of the fitted dose curve at least 0.9, where 1 is the maximum; inconclusive = response in the unintended direction; inactive = score below 0.9.

Target: Nuclear receptor subfamily 1 group I member 2 (Mus musculus) (UniProt O54915)
Assay: ATG_mPXR_XSP2: Attagene TRANS-FACTORIAL Multi-Species (XSP1) HepG2 Assay for mouse Pregnane X Receptor (PXR) (AID 2283831)
How it was run: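 Transient HepG2 transfection, multiplexed GAL4-UAS reporters, NR-GAL4 chimeras. 24 h compound exposure. Readout: reporter mRNA, RT-PCR, fluorescent capillary electrophoresis; positive direction vs DMSO baseline.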

CC(C)(C)c1ccc(O)cc1
outcome: inactive
